Results published in the supplement of paper PMC10849652.
The list shows a part of the results.

The chains behind the UniProt entries cited, without tags or fusion partners. Where a name states a change or a piece, a line headed by the entry shows the natural chain unless it says otherwise.
UniProt O43482, whole entry, looked up: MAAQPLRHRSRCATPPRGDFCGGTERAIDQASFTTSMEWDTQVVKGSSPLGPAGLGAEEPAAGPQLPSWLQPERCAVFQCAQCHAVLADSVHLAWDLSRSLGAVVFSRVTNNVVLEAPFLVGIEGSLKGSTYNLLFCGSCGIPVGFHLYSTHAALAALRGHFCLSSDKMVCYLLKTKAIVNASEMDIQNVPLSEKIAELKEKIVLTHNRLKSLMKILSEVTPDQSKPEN
UniProt Q96FW1, whole entry, looked up: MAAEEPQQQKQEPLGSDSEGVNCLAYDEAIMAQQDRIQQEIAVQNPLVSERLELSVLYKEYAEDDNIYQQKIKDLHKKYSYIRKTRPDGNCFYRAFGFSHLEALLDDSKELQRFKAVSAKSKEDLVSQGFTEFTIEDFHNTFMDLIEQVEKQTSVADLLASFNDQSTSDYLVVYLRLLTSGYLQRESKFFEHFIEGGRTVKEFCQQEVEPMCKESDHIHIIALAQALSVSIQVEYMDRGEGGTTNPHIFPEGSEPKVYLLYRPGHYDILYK
UniProt Q9UQ80: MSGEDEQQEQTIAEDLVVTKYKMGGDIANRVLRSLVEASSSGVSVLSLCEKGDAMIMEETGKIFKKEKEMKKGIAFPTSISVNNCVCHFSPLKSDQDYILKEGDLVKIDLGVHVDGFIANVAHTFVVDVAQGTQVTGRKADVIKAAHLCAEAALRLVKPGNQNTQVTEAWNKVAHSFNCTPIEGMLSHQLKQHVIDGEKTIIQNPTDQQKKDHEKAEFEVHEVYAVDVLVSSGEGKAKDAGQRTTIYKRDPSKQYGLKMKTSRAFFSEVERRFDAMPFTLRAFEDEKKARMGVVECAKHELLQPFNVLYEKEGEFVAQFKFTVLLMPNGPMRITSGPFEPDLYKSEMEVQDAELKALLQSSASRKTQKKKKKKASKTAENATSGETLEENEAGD
UniProt A8MXV4: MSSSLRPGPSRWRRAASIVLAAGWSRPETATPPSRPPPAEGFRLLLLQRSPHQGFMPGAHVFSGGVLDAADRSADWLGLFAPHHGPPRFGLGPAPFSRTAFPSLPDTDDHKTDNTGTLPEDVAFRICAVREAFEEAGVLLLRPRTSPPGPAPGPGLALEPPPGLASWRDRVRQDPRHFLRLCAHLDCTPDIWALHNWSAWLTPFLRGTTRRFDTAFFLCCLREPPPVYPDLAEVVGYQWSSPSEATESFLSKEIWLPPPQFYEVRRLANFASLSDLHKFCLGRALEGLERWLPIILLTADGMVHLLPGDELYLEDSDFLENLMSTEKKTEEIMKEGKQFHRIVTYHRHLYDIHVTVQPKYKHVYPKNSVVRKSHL
UniProt Q9BXS6: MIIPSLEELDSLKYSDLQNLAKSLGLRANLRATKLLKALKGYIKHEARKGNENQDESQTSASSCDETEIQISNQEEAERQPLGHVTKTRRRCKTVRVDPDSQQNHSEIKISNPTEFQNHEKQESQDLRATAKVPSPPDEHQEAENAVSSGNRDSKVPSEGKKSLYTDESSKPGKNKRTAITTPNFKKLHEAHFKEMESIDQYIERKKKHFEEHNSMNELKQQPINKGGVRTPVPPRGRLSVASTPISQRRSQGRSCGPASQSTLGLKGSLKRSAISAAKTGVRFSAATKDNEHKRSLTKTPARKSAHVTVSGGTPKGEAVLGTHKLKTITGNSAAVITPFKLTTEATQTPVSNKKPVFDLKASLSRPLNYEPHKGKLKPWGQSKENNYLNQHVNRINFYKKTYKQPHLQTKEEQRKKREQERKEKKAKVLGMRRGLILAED
UniProt Q9H857: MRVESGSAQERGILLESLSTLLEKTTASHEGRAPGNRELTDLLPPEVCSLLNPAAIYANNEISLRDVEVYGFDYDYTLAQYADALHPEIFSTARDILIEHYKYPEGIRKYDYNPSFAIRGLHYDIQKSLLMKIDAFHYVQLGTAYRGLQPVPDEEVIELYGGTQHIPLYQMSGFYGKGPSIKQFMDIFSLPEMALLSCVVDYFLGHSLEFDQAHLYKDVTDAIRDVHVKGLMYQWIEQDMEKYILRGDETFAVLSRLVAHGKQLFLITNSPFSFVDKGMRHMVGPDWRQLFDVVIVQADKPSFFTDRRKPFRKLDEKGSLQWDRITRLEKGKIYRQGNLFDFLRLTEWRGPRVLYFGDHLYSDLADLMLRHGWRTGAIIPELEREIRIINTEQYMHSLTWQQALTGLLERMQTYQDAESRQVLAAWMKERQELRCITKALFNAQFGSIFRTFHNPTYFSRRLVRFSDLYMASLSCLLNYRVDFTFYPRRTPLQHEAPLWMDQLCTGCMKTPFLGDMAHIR
UniProt Q9Y5Y2: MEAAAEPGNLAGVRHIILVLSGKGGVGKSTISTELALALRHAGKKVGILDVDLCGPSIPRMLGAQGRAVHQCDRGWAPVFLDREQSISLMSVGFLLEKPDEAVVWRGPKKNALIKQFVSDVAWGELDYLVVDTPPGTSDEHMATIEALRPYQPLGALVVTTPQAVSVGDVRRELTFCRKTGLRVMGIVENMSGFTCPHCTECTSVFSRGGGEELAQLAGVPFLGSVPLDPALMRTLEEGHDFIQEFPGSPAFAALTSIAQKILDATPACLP
UniProt Q9Y5A7: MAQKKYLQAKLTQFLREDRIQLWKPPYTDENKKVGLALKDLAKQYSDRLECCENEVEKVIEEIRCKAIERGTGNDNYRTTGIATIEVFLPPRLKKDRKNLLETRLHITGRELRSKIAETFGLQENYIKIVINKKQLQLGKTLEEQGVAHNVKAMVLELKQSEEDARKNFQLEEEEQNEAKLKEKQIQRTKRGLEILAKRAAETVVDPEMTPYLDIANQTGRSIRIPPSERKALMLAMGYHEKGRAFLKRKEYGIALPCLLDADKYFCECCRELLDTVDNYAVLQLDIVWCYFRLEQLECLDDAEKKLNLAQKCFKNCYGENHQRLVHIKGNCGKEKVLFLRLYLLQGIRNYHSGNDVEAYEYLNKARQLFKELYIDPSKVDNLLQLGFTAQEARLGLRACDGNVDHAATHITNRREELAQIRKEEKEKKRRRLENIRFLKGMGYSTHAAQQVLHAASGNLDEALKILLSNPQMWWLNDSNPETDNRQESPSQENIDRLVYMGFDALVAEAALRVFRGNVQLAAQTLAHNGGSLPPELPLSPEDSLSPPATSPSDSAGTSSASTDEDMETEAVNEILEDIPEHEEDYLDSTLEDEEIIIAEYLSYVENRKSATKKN
UniProt O43929: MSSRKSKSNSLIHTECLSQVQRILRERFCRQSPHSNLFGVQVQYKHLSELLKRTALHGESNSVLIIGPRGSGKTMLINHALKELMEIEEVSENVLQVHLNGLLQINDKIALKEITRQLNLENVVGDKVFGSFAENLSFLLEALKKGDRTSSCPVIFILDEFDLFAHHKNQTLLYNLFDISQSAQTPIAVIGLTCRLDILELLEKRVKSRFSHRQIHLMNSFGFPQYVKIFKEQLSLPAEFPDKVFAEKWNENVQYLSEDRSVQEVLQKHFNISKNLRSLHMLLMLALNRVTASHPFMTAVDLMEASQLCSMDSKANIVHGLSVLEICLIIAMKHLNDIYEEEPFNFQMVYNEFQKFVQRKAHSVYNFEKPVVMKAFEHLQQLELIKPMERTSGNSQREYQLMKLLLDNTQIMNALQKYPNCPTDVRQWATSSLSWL
UniProt Q9BRJ7: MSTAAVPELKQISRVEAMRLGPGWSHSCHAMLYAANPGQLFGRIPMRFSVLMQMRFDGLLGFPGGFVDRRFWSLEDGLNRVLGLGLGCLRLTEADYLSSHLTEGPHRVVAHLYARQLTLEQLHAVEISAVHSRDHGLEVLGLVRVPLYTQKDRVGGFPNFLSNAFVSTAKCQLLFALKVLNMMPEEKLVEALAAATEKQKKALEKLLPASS
UniProt Q96RS6: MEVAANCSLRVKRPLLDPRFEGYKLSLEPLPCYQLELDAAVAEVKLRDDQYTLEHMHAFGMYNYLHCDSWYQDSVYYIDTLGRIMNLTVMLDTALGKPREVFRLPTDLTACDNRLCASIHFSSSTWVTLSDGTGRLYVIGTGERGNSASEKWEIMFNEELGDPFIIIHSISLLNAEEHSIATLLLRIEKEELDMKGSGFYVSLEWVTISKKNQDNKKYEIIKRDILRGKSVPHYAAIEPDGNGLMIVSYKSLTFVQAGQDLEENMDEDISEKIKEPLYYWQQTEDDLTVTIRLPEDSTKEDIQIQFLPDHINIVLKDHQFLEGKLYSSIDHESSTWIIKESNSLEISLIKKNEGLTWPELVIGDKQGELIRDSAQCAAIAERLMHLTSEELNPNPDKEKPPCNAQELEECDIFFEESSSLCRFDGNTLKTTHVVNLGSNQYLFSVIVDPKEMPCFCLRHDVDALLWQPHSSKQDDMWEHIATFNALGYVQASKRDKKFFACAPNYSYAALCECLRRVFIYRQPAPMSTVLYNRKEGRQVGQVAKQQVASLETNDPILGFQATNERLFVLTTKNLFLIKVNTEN
UniProt Q96E52: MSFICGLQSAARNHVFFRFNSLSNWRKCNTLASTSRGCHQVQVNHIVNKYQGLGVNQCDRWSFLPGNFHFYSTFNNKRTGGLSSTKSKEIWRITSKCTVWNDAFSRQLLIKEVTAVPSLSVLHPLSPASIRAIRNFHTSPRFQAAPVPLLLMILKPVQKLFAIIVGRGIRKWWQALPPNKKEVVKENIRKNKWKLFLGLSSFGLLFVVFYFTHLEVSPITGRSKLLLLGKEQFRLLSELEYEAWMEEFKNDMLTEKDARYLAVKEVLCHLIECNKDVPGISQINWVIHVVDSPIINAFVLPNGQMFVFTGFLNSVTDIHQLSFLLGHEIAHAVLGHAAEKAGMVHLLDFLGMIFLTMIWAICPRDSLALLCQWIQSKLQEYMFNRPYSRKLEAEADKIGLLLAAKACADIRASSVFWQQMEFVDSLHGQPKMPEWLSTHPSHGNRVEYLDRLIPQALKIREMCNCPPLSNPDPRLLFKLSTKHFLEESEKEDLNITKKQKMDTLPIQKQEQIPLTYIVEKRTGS
UniProt P55809: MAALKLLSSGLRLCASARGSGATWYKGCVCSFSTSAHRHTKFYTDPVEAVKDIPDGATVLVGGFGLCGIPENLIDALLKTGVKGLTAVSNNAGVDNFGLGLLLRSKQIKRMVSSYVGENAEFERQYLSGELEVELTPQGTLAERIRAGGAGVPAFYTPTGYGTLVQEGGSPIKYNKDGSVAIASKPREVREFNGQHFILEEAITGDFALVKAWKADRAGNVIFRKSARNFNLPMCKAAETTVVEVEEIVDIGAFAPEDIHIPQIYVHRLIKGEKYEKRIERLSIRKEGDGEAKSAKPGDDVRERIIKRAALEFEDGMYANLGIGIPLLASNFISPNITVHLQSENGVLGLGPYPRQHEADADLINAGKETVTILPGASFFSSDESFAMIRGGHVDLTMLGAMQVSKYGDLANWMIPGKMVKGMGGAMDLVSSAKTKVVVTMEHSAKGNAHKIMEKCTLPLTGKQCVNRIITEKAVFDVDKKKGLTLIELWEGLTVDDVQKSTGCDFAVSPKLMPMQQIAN
UniProt Q9H0G5: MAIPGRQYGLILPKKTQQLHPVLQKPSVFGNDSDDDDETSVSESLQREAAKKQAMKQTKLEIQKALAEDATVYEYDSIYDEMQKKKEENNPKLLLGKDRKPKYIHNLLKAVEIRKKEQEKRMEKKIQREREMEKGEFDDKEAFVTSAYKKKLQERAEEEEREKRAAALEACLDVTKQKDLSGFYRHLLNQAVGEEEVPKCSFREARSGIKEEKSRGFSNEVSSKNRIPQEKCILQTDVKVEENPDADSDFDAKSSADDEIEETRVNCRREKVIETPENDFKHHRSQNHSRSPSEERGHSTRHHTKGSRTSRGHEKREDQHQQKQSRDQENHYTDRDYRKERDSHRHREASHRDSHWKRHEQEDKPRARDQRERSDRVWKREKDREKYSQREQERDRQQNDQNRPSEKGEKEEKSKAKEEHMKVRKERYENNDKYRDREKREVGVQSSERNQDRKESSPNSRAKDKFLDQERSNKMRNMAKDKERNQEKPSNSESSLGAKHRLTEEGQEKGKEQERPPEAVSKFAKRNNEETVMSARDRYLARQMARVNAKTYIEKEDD
UniProt O95989: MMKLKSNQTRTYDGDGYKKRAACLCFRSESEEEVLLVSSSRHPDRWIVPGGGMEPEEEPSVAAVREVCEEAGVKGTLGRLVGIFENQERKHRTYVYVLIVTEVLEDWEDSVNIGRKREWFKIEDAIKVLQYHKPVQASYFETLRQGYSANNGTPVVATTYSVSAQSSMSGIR

What follows are targets tested with CC[C@@H]1C(=O)N(C)c2cnc(Nc3ccc(C(=O)N[C@H]4CC[C@H](N5CCN(CC6CC6)CC5)CC4)cc3OC)nc2N1C(C)C [volasertib] (assay: log2 fold change, soluble protein after heating vs DMSO (PISA); higher = thermal stabilisation; K562 cells, 10 uM, 30 min; active = over 0.2 and 3.5 SD of the protein, either way, in both replicates (recomputed)).
In short: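 For each measurement, 10 μM compound was applied for 30 min to K562 cells at 2×10^6 cells/mL. Aliquots were heated for 3 min across 48°C-58°C, pooled, and extracted in PBS with 0.5% NP-40 at 4°C; the supernatant after 21,000xg for 90 min was soluble protein. This was quantified by TMTpro 16plex LC-MS/MS with channel sums equalised, and thermal stability was reported relative to control samples from duplicates, on a log2 fold-change scale.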

Target	log2 fold change
OIP5 (UniProt O43482)	inactive: -0.013
OTUB1 (UniProt Q96FW1)	inactive: -0.109
PA2G4 (UniProt Q9UQ80)	inactive: 0.072
NUDT19 (UniProt A8MXV4)	inactive: -0.064
NUSAP1 (UniProt Q9BXS6)	inactive: 0.353
NT5DC2 isoform 2 (UniProt Q9H857)	inactive: 0.017
NUBP2 (UniProt Q9Y5Y2)	inactive: -0.153
NUB1 (UniProt Q9Y5A7)	inactive: -0.5
ORC4 (UniProt O43929)	inactive: -0.284
NUDT16L1 (UniProt Q9BRJ7)	inactive: 0.064
NUDCD1 (UniProt Q96RS6)	inactive: -0.149
NUP214 isoform 5 (UniProt P35658)	inactive: -0.285
OMA1 (UniProt Q96E52)	inactive: -0.044
OXCT1 (UniProt P55809)	inactive: 0.037
NSRP1 (UniProt Q9H0G5)	inactive: 0.03
NUDT3 (UniProt O95989)	inactive: 0.007

Given bar-delimited: part of the list above
Target | log2 fold change
PA2G4 (UniProt Q9UQ80) | inactive: 0.072
NUDT19 (UniProt A8MXV4) | inactive: -0.064
